Measurements reported in PubChem BioAssay AID686938 (Drosophila RNAi Screening Center, 2013).

Purpose: 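Looking for CRAC channel components and the factors controlling them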 (primary screen)
System: Drosophila S2R+ cells
Reagents: long dsRNA against Drosophila genes, about 0.25 µg dsRNA per well, roughly 10,000 cells
Timing: 5 days of knock-down before the calcium assay
Challenge: thapsigargin (SERCA pump blocker) to empty calcium stores; entry signal taken 4 min after adding it
Measured: 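Duplicate raw fluo-4 intensities per well from a plate reader, at rest and four minutes after thapsigargin emptied calcium stores; entry-to-rest ratio filled for only some wells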
Scale: calcium entry signal: higher = stronger calcium signal after store depletion; resting calcium signal: higher = higher resting calcium signal
Active means: 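Called when the plate z-score of the entry-to-rest ratio, mean of duplicates, falls below −3; wells with low overall dye signal (Fmax z below −2) or more than five off-targets excluded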
Calls: active = strongly reduced calcium entry; inactive = no strong reduction
In all, the deposit lists about 23,000 reagents; below is a random part of those with a known target gene and a result. In the full data, 75 (0.33%) were called active. 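Raw plate signals without normalisation; calls rest on plate z-scores that were not deposited; ratio present for only 364 wells.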 Names joined by + are all predicted targets of the reagent. Not stated in the record: the dose of the treatment.

no.	target	dsRNA	calcium entry signal, replicate 1 (fluorescence units)	calcium entry signal, replicate 2 (fluorescence units)	resting calcium signal, replicate 1 (fluorescence units)	resting calcium signal, replicate 2 (fluorescence units)	call
1	Cpr49Af (Cuticular protein 49Af)	DRSC07202	3.21e7	4.20e7	1.70e7	2.00e7	inactive
2	CG14109	DRSC10112	3.02e7	3.79e7	1.59e7	1.84e7	inactive
3	snsl (snustorr snarlik)	DRSC00543	3.40e7	3.59e7	1.62e7	1.66e7	inactive
4	CG14932	DRSC02414	3.23e7	4.36e7	1.91e7	1.93e7	inactive
5	140up (upstream of RpII140)	DRSC12634	2.98e7	3.50e7	1.27e7	1.62e7	inactive
6	nmdyn-D6	DRSC20355	3.89e7	3.47e7	1.94e7	1.63e7	inactive
7	Nf-YB (Nuclear factor Y-box B)	DRSC02057	4.33e7	4.56e7	1.92e7	2.24e7	inactive
8	CG15125	DRSC06547	5.96e7	6.01e7	2.27e7	2.71e7	inactive
9	CG1304	DRSC20494	3.90e7	4.57e7	2.08e7	1.99e7	inactive
10	stau (staufen)	DRSC07698	3.51e7	3.89e7	1.70e7	1.77e7	inactive
11	CG7120	DRSC08921	2.59e7	2.63e7	1.36e7	1.30e7	inactive
12	CG7120	DRSC10773	2.05e7	3.05e7	1.04e7	1.32e7	inactive
13	AOX2 (Aldehyde oxidase 2)	DRSC15338	2.60e7	5.44e7	1.41e7	5.41e7	inactive
14	Rab21	DRSC20968	2.84e7	3.54e7	1.58e7	1.81e7	inactive
15	CG34228	DRSC05300	4.62e7	5.42e7	2.43e7	2.36e7	inactive
16	Dus4 (Dihydrouridine synthase 4)	DRSC02066	4.46e7		2.29e7		inactive
17	CG14070	DRSC02373	3.56e7	4.01e7	1.54e7	1.76e7	inactive
18	Acam + CG17770	DRSC14110	4.53e7	4.84e7	2.13e7	2.00e7	inactive
19	Acam + CG17770	DRSC15264	4.47e7	5.61e7	2.09e7	2.40e7	inactive
20	Alp5 (Alkaline phosphatase 5)	DRSC14269	4.67e7	3.96e7	2.27e7	1.76e7	inactive
21	Gld2 (GLD2 poly(A) polymerase)	DRSC15863	2.96e7	3.49e7	1.83e7	2.08e7	inactive
22	Gld2 (GLD2 poly(A) polymerase)	DRSC23037	3.04e7	3.30e7	1.55e7	1.55e7	inactive
23	Nepl16 (Neprilysin-like 16)	DRSC14650	4.73e7	5.11e7	2.43e7	2.24e7	inactive
24	CkIIbeta2 (Casein kinase II beta2 subunit)	DRSC07361	5.05e7	5.40e7	2.30e7	2.64e7	inactive
25	CG11635	DRSC06075	3.71e7	4.06e7	1.80e7	1.88e7	inactive
26	CR40354 (pseudo)	DRSC20923	2.41e7	2.92e7	1.14e7	1.28e7	inactive
27	CG5790	DRSC02896	3.68e7		1.80e7		inactive
28	DNAlig1 (DNA ligase 1)	DRSC04518	2.96e7		1.53e7		inactive
29	atl (atlastin)	DRSC16089	4.32e7	3.60e7	1.92e7	1.69e7	inactive
30	Oatp26F (Organic anion transporting polypeptide 26F)	DRSC02149	2.48e7	2.70e7	1.23e7	1.20e7	inactive
31	Oatp26F (Organic anion transporting polypeptide 26F)	DRSC02272	2.54e7	2.23e7	1.21e7	1.16e7	inactive
32	Oatp26F (Organic anion transporting polypeptide 26F)	DRSC02695	2.19e7	2.34e7	1.14e7	1.12e7	inactive
33	CG14892	DRSC15014	2.06e7	2.68e7	1.11e7	4.44e7	inactive
34	Rcd-1 (Required for cell differentiation 1)	DRSC19569	3.62e7	3.21e7	1.95e7	1.56e7	inactive
35	CG32718	DRSC17538	2.85e7	3.88e7	1.48e7	1.70e7	inactive
36	CG16753	DRSC08489	3.24e7	2.34e7	2.35e7	1.03e7	inactive
37	Strica (Ser/Thr-rich caspase)	DRSC04920	4.62e7	4.19e7	2.27e7	1.89e7	inactive
38	CG31251	DRSC16247	2.87e7	3.08e7	3.39e7	1.31e7	inactive
39	tsh (teashirt)	DRSC03740	3.57e7	4.75e7	1.92e7	1.92e7	inactive
40	CG11703	DRSC14356	3.43e7	2.62e7	1.72e7	1.24e7	inactive
